Data as given in PubChem BioAssay AID1053208 (Peter MacCallum Cancer Centre, 2014).

Screen: 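Synthetic lethal interactions between gene loss and doxorubicin in osteosarcoma cells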 (primary screen)
Cell system: mouse osteosarcoma cells, early-passage culture from an engineered mouse model of fibroblastic bone tumour
Reagent: siRNA pool against mouse genes, 40 nM
Duration: about 120 h (48 h before drug, then 72 h with drug)
Challenge: doxorubicin 100 nM for 72 h, roughly 30-40% inhibitory dose
Measurement: 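Luminescent ATP signal taken as viability with or without 100 nM doxorubicin for 72 h; mean of two wells set against non-targeting siRNA and turned into robust z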
Scale: viability z-score with doxorubicin: higher = more viable cells under doxorubicin; viability z-score without drug: higher = more viable cells with knock-down alone
Rule for the call: 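a pool counts as active when its viability z-score with doxorubicin is -2 or below and its z-score without drug lies between -2 and 2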
In all, the deposit lists about 17,000 reagents; this is a random part of them. Of all reagents, 788 (4.7%) were called active. 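Calls rest on z-score classes alone; an extra cut-off of viability at most 70% of control was not applied to them.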 The numbers tell different reagents against one gene apart. Not all columns of the deposit are shown.

With knock-down of Or12j5, the screen gave combined z-score class no change with or without drug; viability z-score with doxorubicin 1.12; viability z-score without drug -0.17; inactive.
Depletion of Tm4sf1 gave: combined z-score class no change with or without drug; viability z-score with doxorubicin 0.45; viability z-score without drug 1.52; inactive.
Dkkl1 showed combined z-score class no change with or without drug; viability z-score with doxorubicin -0.34; viability z-score without drug 0.17; inactive.
With knock-down of Plbd2, the record shows combined z-score class no change with or without drug; viability z-score with doxorubicin 1.35; viability z-score without drug 1.35; inactive.
Knock-down of Zscan21 came out at: combined z-score class no change with or without drug; viability z-score with doxorubicin 0.9; viability z-score without drug 1.18; inactive.
Depletion of Nif3l1 resulted in: combined z-score class high cell count with doxorubicin only; viability z-score with doxorubicin 2.59; viability z-score without drug 0.51; inactive.
With knock-down of Scgb2b2, the record shows combined z-score class no change with or without drug; viability z-score with doxorubicin 0.11; viability z-score without drug -0.67; inactive.
After knock-down of Anapc1 the results were combined z-score class no change with or without drug; viability z-score with doxorubicin -1.57; viability z-score without drug -1.85; inactive.
Rnf167 scored combined z-score class low cell count without drug only; viability z-score with doxorubicin -1.12; viability z-score without drug -4.22; inactive.
Against 1600012H06Rik, the values are combined z-score class no change with or without drug; viability z-score with doxorubicin -0.22; viability z-score without drug 1.85; inactive.
After knock-down of Hsd17b7, the screen gave combined z-score class no change with or without drug; viability z-score with doxorubicin 1.12; viability z-score without drug -0.34; inactive.
For Lamp1, the values are combined z-score class no change with or without drug; viability z-score with doxorubicin -1.57; viability z-score without drug 0.17; inactive.
With knock-down of Gpr146 #1, the screen gave combined z-score class no change with or without drug; viability z-score with doxorubicin -0.56; viability z-score without drug 0; inactive.
With knock-down of Gpr146 #2, the screen gave combined z-score class no change with or without drug; viability z-score with doxorubicin 1.01; viability z-score without drug 1.18; inactive.
Hmgcs1 showed combined z-score class low cell count with doxorubicin only; viability z-score with doxorubicin -2.25; viability z-score without drug -1.18; active.
After knock-down of Cep164, the screen gave combined z-score class no change with or without drug; viability z-score with doxorubicin 1.01; viability z-score without drug -0.51; inactive.

Quoted from the entries so far (4 entries):
Scgb2b2 | combined z-score class: no change with or without drug; viability z-score with doxorubicin: 0.11; viability z-score without drug: -0.67; activity call: inactive
Anapc1 | combined z-score class: no change with or without drug; viability z-score with doxorubicin: -1.57; viability z-score without drug: -1.85; activity call: inactive
Rnf167 | combined z-score class: low cell count without drug only; viability z-score with doxorubicin: -1.12; viability z-score without drug: -4.22; activity call: inactive
1600012H06Rik | combined z-score class: no change with or without drug; viability z-score with doxorubicin: -0.22; viability z-score without drug: 1.85; activity call: inactive

The listing continues.
Pggt1b gave combined z-score class no change with or without drug; viability z-score with doxorubicin 0.22; viability z-score without drug -0.51; inactive.
For Gja3 the deposit lists combined z-score class no change with or without drug; viability z-score with doxorubicin 1.57; viability z-score without drug 0.34; inactive.
With knock-down of Vax1, the record shows combined z-score class no change with or without drug; viability z-score with doxorubicin -0.9; viability z-score without drug 0; inactive.
Cchcr1 gave combined z-score class no change with or without drug; viability z-score with doxorubicin 0.9; viability z-score without drug 1.18; inactive.
For Glrb the deposit lists combined z-score class no change with or without drug; viability z-score with doxorubicin 1.57; viability z-score without drug 1.52; inactive.
With knock-down of Otof, the record shows combined z-score class no change with or without drug; viability z-score with doxorubicin 1.35; viability z-score without drug 1.18; inactive.
After knock-down of Nr4a1, the screen gave combined z-score class no change with or without drug; viability z-score with doxorubicin -0.45; viability z-score without drug 0.17; inactive.
Against Rnf111, the entry reads combined z-score class low cell count with doxorubicin only; viability z-score with doxorubicin -2.25; viability z-score without drug -0.34; active.
Depletion of Taf8 came out at: combined z-score class high cell count with and without drug; viability z-score with doxorubicin 2.81; viability z-score without drug 3.2; inactive.
After knock-down of Serhl, the record shows combined z-score class no change with or without drug; viability z-score with doxorubicin 0; viability z-score without drug 1.18; inactive.
Silencing of Nop14 gave: combined z-score class no change with or without drug; viability z-score with doxorubicin -1.24; viability z-score without drug 0.51; inactive.
Knock-down of Eya3 resulted in: combined z-score class no change with or without drug; viability z-score with doxorubicin 0.11; viability z-score without drug -0.51; inactive.
